In the supplement of paper PMC12819154, “High-throughput peptide-centric local stability assay extends protein–ligand identification to membrane proteins, tissues and bacteria” (Nature Structural & Molecular Biology, 2025):
The other results are listed elsewhere or left out. Most values lie at the level of the controls, where differences are scatter.

The chains behind the UniProt entries cited, without tags or fusion partners. Where a name states a change or a piece, a line headed by the entry shows the natural chain unless it says otherwise.
UniProt P09041: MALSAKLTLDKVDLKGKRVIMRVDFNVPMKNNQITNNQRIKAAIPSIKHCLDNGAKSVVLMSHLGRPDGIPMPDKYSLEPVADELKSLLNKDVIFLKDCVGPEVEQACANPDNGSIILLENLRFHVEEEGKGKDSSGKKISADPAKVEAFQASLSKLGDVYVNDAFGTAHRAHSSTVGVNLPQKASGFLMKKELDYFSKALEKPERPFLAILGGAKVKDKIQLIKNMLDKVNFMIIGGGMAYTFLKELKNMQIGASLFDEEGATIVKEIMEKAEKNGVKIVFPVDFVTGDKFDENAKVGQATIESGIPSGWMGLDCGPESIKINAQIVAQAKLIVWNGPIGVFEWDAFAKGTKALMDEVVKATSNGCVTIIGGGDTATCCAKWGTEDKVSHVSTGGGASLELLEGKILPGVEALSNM
UniProt P10518: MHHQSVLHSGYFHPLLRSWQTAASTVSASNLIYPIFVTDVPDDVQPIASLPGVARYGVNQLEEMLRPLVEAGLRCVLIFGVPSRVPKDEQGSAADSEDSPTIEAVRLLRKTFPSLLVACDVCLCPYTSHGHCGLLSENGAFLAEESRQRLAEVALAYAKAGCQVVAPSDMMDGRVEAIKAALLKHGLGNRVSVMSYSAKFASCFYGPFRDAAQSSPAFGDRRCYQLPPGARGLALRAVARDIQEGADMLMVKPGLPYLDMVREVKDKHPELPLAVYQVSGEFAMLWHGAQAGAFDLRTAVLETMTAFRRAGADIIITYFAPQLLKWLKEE
UniProt P04104: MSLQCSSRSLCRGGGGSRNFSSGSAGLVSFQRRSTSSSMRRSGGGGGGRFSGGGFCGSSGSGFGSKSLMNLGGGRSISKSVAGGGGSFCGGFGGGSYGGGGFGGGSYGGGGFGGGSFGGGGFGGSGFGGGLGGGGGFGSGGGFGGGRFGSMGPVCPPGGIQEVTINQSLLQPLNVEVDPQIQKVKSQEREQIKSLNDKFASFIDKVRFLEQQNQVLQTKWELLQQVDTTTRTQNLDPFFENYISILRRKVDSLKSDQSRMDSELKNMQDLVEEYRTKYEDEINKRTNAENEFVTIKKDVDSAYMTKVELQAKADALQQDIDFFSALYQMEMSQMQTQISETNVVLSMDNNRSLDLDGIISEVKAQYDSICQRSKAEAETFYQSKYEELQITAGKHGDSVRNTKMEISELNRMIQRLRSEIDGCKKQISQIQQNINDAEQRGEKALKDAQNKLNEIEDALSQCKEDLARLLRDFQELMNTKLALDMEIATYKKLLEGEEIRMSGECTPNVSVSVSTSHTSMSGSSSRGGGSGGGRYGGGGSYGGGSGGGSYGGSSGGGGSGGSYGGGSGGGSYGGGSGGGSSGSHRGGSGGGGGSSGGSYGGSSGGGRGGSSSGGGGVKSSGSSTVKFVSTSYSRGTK
UniProt P13597, whole entry: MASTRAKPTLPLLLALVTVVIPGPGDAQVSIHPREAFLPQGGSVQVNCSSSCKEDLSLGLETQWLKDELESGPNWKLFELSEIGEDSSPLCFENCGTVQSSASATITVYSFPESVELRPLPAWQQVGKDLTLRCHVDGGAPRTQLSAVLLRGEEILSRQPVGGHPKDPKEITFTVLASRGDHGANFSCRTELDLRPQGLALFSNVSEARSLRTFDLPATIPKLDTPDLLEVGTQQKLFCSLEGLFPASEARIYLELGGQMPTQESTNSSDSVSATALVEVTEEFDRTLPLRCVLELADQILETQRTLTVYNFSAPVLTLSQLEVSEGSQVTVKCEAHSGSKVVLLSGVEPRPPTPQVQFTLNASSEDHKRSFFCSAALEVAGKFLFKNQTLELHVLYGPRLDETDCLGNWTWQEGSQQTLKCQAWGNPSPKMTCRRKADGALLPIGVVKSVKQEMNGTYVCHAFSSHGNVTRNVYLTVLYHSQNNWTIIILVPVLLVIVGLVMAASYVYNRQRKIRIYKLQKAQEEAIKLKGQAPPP
UniProt P0CL69: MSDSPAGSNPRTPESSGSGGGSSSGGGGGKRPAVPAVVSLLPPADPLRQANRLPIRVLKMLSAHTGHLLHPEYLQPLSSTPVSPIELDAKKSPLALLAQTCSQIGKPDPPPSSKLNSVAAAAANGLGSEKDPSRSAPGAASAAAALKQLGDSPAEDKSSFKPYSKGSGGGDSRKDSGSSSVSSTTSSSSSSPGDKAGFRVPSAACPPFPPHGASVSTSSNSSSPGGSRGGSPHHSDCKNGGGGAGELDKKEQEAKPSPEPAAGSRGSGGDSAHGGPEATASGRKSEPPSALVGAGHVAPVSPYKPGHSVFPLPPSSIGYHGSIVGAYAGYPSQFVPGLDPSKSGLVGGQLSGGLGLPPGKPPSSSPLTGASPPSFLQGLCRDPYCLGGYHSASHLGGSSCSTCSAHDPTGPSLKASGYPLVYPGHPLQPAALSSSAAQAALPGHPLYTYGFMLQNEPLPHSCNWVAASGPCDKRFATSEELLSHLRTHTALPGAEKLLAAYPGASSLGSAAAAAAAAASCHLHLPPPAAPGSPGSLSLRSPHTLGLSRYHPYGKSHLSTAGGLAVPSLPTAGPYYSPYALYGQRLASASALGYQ
UniProt P08228, whole entry: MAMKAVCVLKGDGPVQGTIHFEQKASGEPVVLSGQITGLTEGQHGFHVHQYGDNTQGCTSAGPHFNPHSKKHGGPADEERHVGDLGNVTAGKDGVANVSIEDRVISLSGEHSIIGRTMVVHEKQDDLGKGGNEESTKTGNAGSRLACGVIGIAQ
UniProt P14211: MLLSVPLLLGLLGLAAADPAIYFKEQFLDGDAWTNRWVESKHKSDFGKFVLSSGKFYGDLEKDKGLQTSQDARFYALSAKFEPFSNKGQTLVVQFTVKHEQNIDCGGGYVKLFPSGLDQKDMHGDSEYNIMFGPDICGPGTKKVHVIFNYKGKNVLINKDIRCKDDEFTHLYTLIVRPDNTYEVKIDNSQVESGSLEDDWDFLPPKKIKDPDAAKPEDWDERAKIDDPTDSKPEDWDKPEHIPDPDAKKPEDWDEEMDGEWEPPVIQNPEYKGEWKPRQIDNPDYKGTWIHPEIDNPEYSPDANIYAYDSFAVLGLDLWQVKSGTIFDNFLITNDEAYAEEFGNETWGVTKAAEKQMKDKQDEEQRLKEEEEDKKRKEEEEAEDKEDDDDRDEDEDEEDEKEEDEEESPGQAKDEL

Compound: CN[C@@H]1C[C@H]2O[C@@](C)([C@@H]1OC)n1c3ccccc3c3c4c(c5c6ccccc6n2c5c31)C(=O)NC4 [staurosporine]
Test: log2 fold change of tryptic peptide abundance, ligand vs vehicle (limited proteolysis) (log2 ratio); higher = more trypsin-susceptible (destabilized)
Settings: ligand concentration: 20 uM; sample: mouse liver crude lysate; replicate design: treated separately

| Target | log2 fold change |
| --- | --- |
| UniProt P09041 (peptide sequence: FHVEEEGK, peptide start residue: 124) | -0.124 |
| UniProt P10518 (peptide sequence: LAEVALAYAK, peptide start residue: 150) | 0.319 |
| UniProt P04104 (peptide sequence: YEDEINKR, peptide start residue: 185) | -0.205 |
| UniProt P13597 (peptide sequence: AQEEAIKLK, peptide start residue: 523) | -0.238 |
| UniProt P0CL69 (peptide sequence: LNSVAAAAANGLGSEKDPSR, peptide start residue: 115) | -0.27 |
| UniProt P08228 (peptide sequence: QDDLGKGGNEESTK, peptide start residue: 124) | -0.891 |
| UniProt P14148 (peptide sequence: TTHFVEGGDAGNREDQINR, peptide start residue: 246) | 0.16 |
| UniProt P14211 (peptide sequence: DKQDEEQR, peptide start residue: 359) | -0.567 |

Reformatted with bars between the fields: part of the list above
Target | log2 fold change
UniProt P09041 (peptide sequence: FHVEEEGK, peptide start residue: 124) | -0.124
UniProt P10518 (peptide sequence: LAEVALAYAK, peptide start residue: 150) | 0.319
